## Results of single-concentration screens

Protein sequences, listed by entry. Tags and fused reporters are not part of them. Residues count along the entry.
UniProt Q8IDJ8, 1-583: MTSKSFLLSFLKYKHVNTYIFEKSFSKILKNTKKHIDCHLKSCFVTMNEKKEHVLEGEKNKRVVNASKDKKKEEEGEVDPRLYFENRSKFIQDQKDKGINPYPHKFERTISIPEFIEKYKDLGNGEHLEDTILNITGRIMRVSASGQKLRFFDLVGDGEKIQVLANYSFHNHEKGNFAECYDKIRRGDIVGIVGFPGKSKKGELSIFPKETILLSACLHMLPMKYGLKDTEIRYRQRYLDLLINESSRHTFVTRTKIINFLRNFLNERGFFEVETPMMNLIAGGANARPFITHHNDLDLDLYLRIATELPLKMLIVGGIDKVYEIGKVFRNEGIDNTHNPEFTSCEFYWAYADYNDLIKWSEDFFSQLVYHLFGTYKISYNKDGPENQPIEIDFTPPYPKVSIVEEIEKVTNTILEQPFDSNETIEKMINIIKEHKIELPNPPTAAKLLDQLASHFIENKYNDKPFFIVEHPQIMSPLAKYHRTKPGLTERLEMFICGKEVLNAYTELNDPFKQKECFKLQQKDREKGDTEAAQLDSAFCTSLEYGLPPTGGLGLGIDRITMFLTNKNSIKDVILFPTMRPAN

Measurements from “University of Dundee, Small-Polar-MMV Screening Library” (2021), ChEMBL document CHEMBL3988442.

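Enzyme assay of the cytosolic lysyl-tRNA synthetase in 384-well plates, read by luminescence. Target: Lysine-tRNA ligase, Plasmodium falciparum 3D7 (UniProt Q8IDJ8). Tested at 30 µM. Direction is inferred from only a few compounds that gave an IC50; most scored high, so higher reads as stronger inhibition. Size under these conditions: about 69,000 compounds, about 49 of them at 50% or above in at least one test.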

Values are the deposited “Percent Effect”, in %.
The controls that fix the scale are not given in the record; negative values are as filed.
The compounds are a random part of those screened.

compound | percent effect
CCN(CC)C(CNC(=O)c1ccc(S(=O)(=O)NC)cc1)c1ccco1 (stereo not drawn) | 7.085
Cn1cccc1-c1cc(C(=O)NCCCc2csc(N)n2)[nH]n1 | 1.903
O=C(O)C[C@@H]1CCN(C(=O)c2cccs2)C[C@@H]1CCN1CCCCC1 | 7.889
CCc1nnc2n1CCN(Cc1cc(Cl)c3c(c1)OCCCO3)C2 | 0.4774
CS(=O)(=O)N1CCOCC2(CN(Cc3ccsc3)CCO2)C1 (stereo not drawn) | 5.202
N#Cc1cccc(OCC(=O)N(Cc2ccsc2)C2CC2)c1 | 4.325
COCC(=O)N1CCN(C(=O)Cc2cccs2)[C@H]2CS(=O)(=O)C[C@H]21 | 5.165
COCCN1CCC(NC(=O)C(C)C)CC1 | 1.64
COCCN(C)C(C(=O)O)c1ccc(Cl)c(F)c1 (stereo not drawn) | 6.08
COc1ccc(C2CNCCN2C(=O)c2nccc3ccccc23)cc1 (stereo not drawn) | -0.01431
CCN1C[C@@H]2[C@@H](OC)CCN(S(=O)(=O)c3ccccc3)[C@@H]2C1 | 1.585
NC(=O)c1ccnc(N2CCN(Cc3ccc(F)cc3Cl)CC2)c1 | 4.359
Cn1cc(C(=O)NCC2CCN(C(=O)NC3CCCCC3)CC2)cn1 | -1.322
Cn1ccnc1CN1CCCCC1Cn1cccn1 (stereo not drawn) | 1.911
CN(Cc1cnccn1)C(=O)Nc1cc(F)cc(N2CCCC2)c1 | 0.6658
Cc1nc(C2(NCc3cccc(F)c3F)CCCCC2)no1 | 4.591
O=C(c1cccc2cccnc12)N1CC[C@@]2(CCCO2)[C@@H](O)C1 | 2.264
O=C(c1cc(Br)ccc1-n1cnnn1)N1CCCC1 | 1.507
CC1CCCCN1C(=O)CCn1cnc2sccc2c1=O (stereo not drawn) | 3.112
Cc1cc(C)n(-c2ccc(C(=O)NCc3cncn3CC(C)C)cc2)n1 | 1.53
Cn1ccnc1CNc1ccc(F)c(N2CCCS2(=O)=O)c1 | 1.947
CCc1ccc(CC(=O)N2CCN(c3nccn3C)CC2)cc1 | 3.942
CC(C)CC(NS(C)(=O)=O)C(=O)N(C)Cc1nnc2n1CCC2 (stereo not drawn) | 3.077
CSCc1noc(CNC(=O)C2CCN(C3CCCCC3)CC2)n1 | 4.466
CCCn1nc2c(cc1=O)CN(Cc1c(C)noc1C)CC2 | 5.454
Cc1ccoc1-c1nnc(CN2CCn3c(nnc3C3CC3)C2)o1 | -3.697
N#Cc1ccnc(N2CCN(C(=O)NC3CCS(=O)(=O)C3)CC2)c1 (stereo not drawn) | -2.865
COc1cc2nc3n(c(=O)c2cc1OC)CCN(C)CC3 | 4.317
CC[C@H](C)Nc1nccc(-c2cnc3sc(C)cn3c2=O)n1 | 2.962
Oc1cc(CC2COCCN(CC3(O)CCOCC3)C2)ncn1 (stereo not drawn) | 0.5187
Cn1cc(CC(=O)N2CCOC(c3nc(C(C)(C)C)n[nH]3)C2)cn1 (stereo not drawn) | 3.817
OCCOc1cc(F)ccc1NCc1cccc(F)c1F | 1.526
CCn1nc(C)c(NC(=O)CN(C)C(C)c2ccon2)c1C (stereo not drawn) | 6.536
CCCn1nccc1C(=O)N1CCN(C2CCc3ccccc3C2)CC1 (stereo not drawn) | 10.4
O=C(NCC1CCOC1)c1csc(-c2ccc(F)cc2)n1 (stereo not drawn) | 0.8151
Cc1cccc(C(=O)NC2CCN(c3cnn(C)c3)C2=O)c1C (stereo not drawn) | 3.593
CN(C)CCN(C)C(=O)Cn1cccc2cc(-c3ccc(F)cc3)nc1-2 | 0.8696
CC(C)NC(=O)N1CCCC(Cn2cc(-c3ccc(F)cc3)nn2)C1 (stereo not drawn) | -1.315
COCc1ncc(CN2C[C@@H](C(=O)O)[C@H](C(C)C)C2)cn1 | 1.686
COc1cccc(CNc2nc(N3CCOCC3)ns2)c1OC | -2.519
CCN(C)Cc1cnc(S(=O)(=O)CC)n1CCOC | 1.758
CC(=O)N1CC2(CCNCC2)c2cc(Cl)ccc21 | 6.504
CCc1ncc(C(=O)N2CC[C@@H]3CC[C@H](C2)N3C)cn1 | 4.965
CC(=O)N[C@@H]1CN(C(=O)c2cnccn2)C[C@H]1c1ccc(C)cc1 | 2.952
CN1C[C@@H](n2cnc(-c3ccccc3)c2-c2nccn2C)C[C@H]1C(=O)O | -0.2374
O=C(COc1ccccc1O)N1CCOC(C(F)(F)F)C1 (stereo not drawn) | -1.353
CCN(CCSc1ccccc1)C(=O)c1cn([C@H]2CC[C@@H](N)CC2)nn1 | 1.7
Cc1ccccc1C(C)CC(=O)N1CC[C@H](O)C1 (stereo partly drawn) | 0.8658
CC(C)N1CCC(C(=O)N(C)C(C)c2ccon2)CC1 (stereo not drawn) | 2.111
O=C(NCCCF)N1CCC(n2ccc(C(F)(F)F)n2)CC1 | 1.83
O=C(CC1CC1)NC1CCc2c(ccc(=O)n2CC2CC2)C1 (stereo not drawn) | 4.364
CCCc1n[nH]c(C2CN(Cc3nnc(C4CC4)o3)CCO2)n1 (stereo not drawn) | 4.823
Cc1n[nH]c(C)c1-c1cnc(CC2CCN(C(C)C)CC2)cn1 | 1.083
CN1CCOC(CNC(=O)CCCOc2ccccc2F)C1 (stereo not drawn) | -3.376
Cc1cc(C(=O)NC2(C#N)CCCC2)c(C)n1-c1cccnc1 | 0.9977
CC(C)C(=O)Nc1cccc(C(=O)Nc2ccccn2)c1 | 1.445
CC(NC(=O)NCCCn1cccn1)c1ccncc1 (stereo not drawn) | 1.624
CC(C)N1CC[C@H]2[C@H](C[C@@H](Cn3cncn3)N2c2nccs2)C1 | 3.187
O=C1[C@H]2CN(Cc3nccs3)C[C@H]2CN1c1ccsc1 | -1.898
CCCc1nc(N2CCCC(C)C2)c2c(n1)c(C)nn2CC (stereo not drawn) | 2.378
CCc1nnc2n1CC(CNCc1nc(C)c(C)o1)CC2 (stereo not drawn) | 10.49
CC1=C[C@@H](CC#N)[C@H](C(C)C)C[C@H]1CC(=O)N1CCN(C)CC1 | 2.581
CNc1ncc(C(=O)N2CCOC(C(=O)Nc3ccccc3)C2)cn1 (stereo not drawn) | 1.23
CCN1CCN(C(=O)c2ccnc(N(C)C)c2)CC1 | 4.162
CC[C@@H]1N(Cc2ccc(F)cc2)CCC[C@]12CCC(=O)N2C | 4.097
NC(=O)c1ccn(COc2ccccc2Cl)n1 | -0.8274
COc1ccc(-c2nnc(SCC(=O)NCC(C)C)[nH]2)c(OC)c1 | 5.769
CC(C)OCCN1CCC(N2CCN(C)C2=O)CC1 | 2.562
Cc1ccc(C(=O)N2C[C@@H](OCc3cccnc3)[C@H]3OCCC[C@@H]32)o1 | 7.759
c1ccc(CN2CC[C@@H]3O[C@@H](COCC4CCOCC4)CC[C@@H]32)nc1 | 0.4409
O=C(CNC(=O)c1ccc2c(c1)CCC2)NCCNc1ncccn1 | -0.1191
CCCn1nccc1C(=O)N1CCCC(C(=O)CCc2ccccc2)C1 (stereo not drawn) | 5.256
Cc1cn(-c2ccccc2)nc1NS(=O)(=O)c1cccc(C(=O)O)c1 | 4.138
O=c1cc(N2CCCCC2)cnn1CC(O)C(F)(F)F (stereo not drawn) | 0.6805
CCC(=O)Nc1cccc(OCC(=O)N2CC=CC2C(C)C)c1 (stereo not drawn) | 2.097
O=C1CCCC2=C1C(c1cc(Cl)ccc1F)Nc1nonc1N2 (stereo not drawn) | 1.587
CS(=O)(=O)c1ccc(NC(=O)CSc2ccc3c(c2)CCC3)cn1 | 2.9
CN(CC(=O)Nc1nc2c(s1)CCCCCC2)C(=O)c1ccco1 | 6.5
CC(C)CC(NC(=O)C1=CCCC1)C(=O)N1CCC(CO)CC1 (stereo not drawn) | -0.8115
CC(=O)c1ccccc1NC(=O)CCN1CCSCC1 | -0.9321
CN(C)c1cc(C2CCCNC2)ccn1 (stereo not drawn) | 0.5944
CCc1ccc(S(=O)(=O)Nc2cnc(N3CCOCC3)nc2)cc1 | 8.022
COCCNc1ccc(CNC(=O)Nc2cn[nH]c2)cc1 | 13.17
COc1c(CNCc2ccc(CN(C)C)cc2)c(C)nn1C | 2.395
COc1ccc(F)cc1-c1ccccc1CC1CNCCNC1=O (stereo not drawn) | 1.306
O=C(NCCc1c[nH]cn1)c1n[nH]c2c1CCC2 | 1.547
CCOc1cc(C)nc(N2CCN(C(=O)c3ccc[nH]3)CC2)n1 | 7